Measurements reported in PubChem BioAssay AID1671195 (Yale University, 2021).

Aim: 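Regulators of LDL receptor activity judged by labelled LDL uptake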 (primary screen)
Cells: human Huh7 hepatoma cells
Reagent: siRNA pool against human genes, 18 nM
Duration: about 2 to 2.5 days of knockdown, then 8 h LDL uptake
Challenge: DiI-labelled LDL at 30 µg/ml for 8 h, in lipoprotein-deficient serum medium
Read-out: 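Per-cell DiI-LDL intensity by automated imaging; well means scaled to the plate median and given as a robust z-score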
Direction: robust z-score: higher = more LDL uptake after knockdown
Hit rule: 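Active when two or more replicates show a robust z-score above 2 or below -2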
The deposit covers about 22,000 reagents; shown is a part drawn at random. Of all reagents, about 1,510 (6.9%) were called active. 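Active includes knockdowns raising or lowering LDL uptake; positive z-scores mean more uptake, negative mean less.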 A number with no mark means an inactive call. Reagent sequences are not shown.

robust z-score, replicate 1 | robust z-score, replicate 2 | robust z-score, replicate 3 | target gene
0.306 | 0.306 | 0.508 | SLC29A2
0.953 | 2.46 | 0.00598 | AIRIM (AFG2 interacting ribosome maturation factor)
0.11 | 1.22 | -0.359 | TREH (trehalase)
1.42 | 1.52 | 2.9 | LINC01000 (long independently transcribed non-coding RNA 1000)
-0.67 | -0.607 | -0.724 | FLII (FLII actin remodeling protein)
-0.13 | 0.124 | -0.286 | TMEM11 (transmembrane protein 11)
0.115 | 1.54 | 1.58 | ASAP2 (ArfGAP with SH3 domain, ankyrin repeat and PH domain 2)
-1.04 | -0.804 | -1.11 | SHTN1 (shootin 1)
-0.772 | -0.232 | -0.948 | IL9RP2 (IL9R pseudogene 2)
2.7 (active) | 2.66 | 2.1 | MUC4 (mucin 4, cell surface associated)
-0.267 | -0.466 | -0.68 | LOC440392 (retired record)
1.18 | 1.43 | 0.899 | LOC440190 (retired record)
0.89 | 0.151 | 0.362 | SCIMP (SLP adaptor and CSK interacting membrane protein)
0.281 | -0.131 | 1.2 | SCN3A (sodium voltage-gated channel alpha subunit 3)
1.38 | 0.407 | 1.13 | SPATA3 (spermatogenesis associated 3)
-1.58 | -1.07 | -0.765 | KLHL33 (kelch like family member 33)
-0.682 | -0.485 | -0.158 | CALU (calumenin)
-1.42 | -0.792 | -0.9 | RPS26P29 (ribosomal protein S26 pseudogene 29)
1.54 | 0.995 | 0.638 | KREMEN1 (kringle containing transmembrane protein 1)
1.97 | 0.149 | -0.301 | STAP1 (signal transducing adaptor family member 1)
0.125 | 0.22 | -0.325 | FAM107B (family with sequence similarity 107 member B)
-0.107 | 0.222 | -0.149 | UCHL1 (ubiquitin C-terminal hydrolase L1)
-0.817 | -0.683 | -0.571 | MTF1 (metal regulatory transcription factor 1)
0.121 | -0.227 | -0.554 | SYT16 (synaptotagmin 16)
4.93 (active) | 3.93 | 4.91 | FHL2 (four and a half LIM domains 2)
0.349 | -0.787 | -0.0383 | SNAPIN (SNAP associated protein)
-0.271 | 0.283 | 0.664 | LEO1 (LEO1 component of Paf1/RNA polymerase II complex)
-0.355 | -0.754 | 0.496 | PGPEP1L (pyroglutamyl-peptidase I like)

3 entries from above, set out differently.
robust z-score, replicate 1	robust z-score, replicate 2	robust z-score, replicate 3	target gene
-0.13	0.124	-0.286	TMEM11 (transmembrane protein 11)
0.115	1.54	1.58	ASAP2 (ArfGAP with SH3 domain, ankyrin repeat and PH domain 2)
-1.04	-0.804	-1.11	SHTN1 (shootin 1)
